{"sequences": {"note": "By UniProt entry, the sequences of proteins in these tests, tags left out.", "UniProt P46937": "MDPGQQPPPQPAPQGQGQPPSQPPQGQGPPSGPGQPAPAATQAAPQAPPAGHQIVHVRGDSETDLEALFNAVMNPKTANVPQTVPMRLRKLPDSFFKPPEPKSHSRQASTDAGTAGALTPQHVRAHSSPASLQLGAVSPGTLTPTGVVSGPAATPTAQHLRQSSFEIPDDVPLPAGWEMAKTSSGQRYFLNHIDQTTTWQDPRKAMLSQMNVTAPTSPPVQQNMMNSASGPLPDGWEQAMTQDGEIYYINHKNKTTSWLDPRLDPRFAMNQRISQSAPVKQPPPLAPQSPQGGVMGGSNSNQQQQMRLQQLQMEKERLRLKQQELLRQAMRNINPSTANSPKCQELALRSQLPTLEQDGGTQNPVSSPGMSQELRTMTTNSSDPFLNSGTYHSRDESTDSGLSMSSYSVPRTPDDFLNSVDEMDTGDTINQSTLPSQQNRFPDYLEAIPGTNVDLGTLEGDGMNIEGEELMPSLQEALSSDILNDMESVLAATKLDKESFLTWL", "UniProt P07947": "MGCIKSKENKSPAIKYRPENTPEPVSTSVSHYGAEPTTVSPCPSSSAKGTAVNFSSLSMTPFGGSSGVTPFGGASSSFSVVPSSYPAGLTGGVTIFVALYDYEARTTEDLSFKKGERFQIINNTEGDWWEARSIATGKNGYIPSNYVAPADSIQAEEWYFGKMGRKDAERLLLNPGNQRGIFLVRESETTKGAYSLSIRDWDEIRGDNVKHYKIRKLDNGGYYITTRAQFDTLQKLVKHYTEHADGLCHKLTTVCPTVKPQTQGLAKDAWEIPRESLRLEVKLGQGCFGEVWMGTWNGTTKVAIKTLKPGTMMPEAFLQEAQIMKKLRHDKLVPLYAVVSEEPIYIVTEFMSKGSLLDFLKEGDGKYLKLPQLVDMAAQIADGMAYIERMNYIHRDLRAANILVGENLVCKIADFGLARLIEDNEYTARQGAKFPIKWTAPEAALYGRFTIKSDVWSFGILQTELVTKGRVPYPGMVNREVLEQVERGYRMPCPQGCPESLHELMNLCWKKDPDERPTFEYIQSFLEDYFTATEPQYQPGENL"}, "source": "paper PMC4574897", "molecules": {"B1": {"name": "MARVELD2 (tricellulin), Q8N4S9 1-558 (protein)", "chain": "MSNDGRSRNRDRRYDEVPSDLPYQDTTIRTHPTLHDSERAVSADPLPPPPLPLQPPFGPDFYSSDTEEPAIAPDLKPVRRFVPDSWKNFFRGKKKDPEWDKPVSDIRYISDGVECSPPASPARPNHRSPLNSCKDPYGGSEGTFSSRKEADAVFPRDPYGSLDRHTQTVRTYSEKVEEYNLRYSYMKSWAGLLRILGVVELLLGAGVFACVTAYIHKDSEWYNLFGYSQPYGMGGVGGLGSMYGGYYYTGPKTPFVLVVAGLAWITTIIILVLGMSMYYRTILLDSNWWPLTEFGINVALFILYMAAAIVYVNDTNRGGLCYYPLFNTPVNAVFCRVEGGQIAAMIFLFVTMIVYLISALVCLKLWRHEAARRHREYMEQQEINEPSLSSKRKMCEMATSGDRQRDSEVNFKELRTAKMKPELLSGHIPPGHIPKPIVMPDYVAKYPVIQTDDERERYKAVFQDQFSEYKELSAEVQAVLRKFDELDAVMSRLPHHSESRQEHERISRIHEEFKKKKNDPTFLEKKERCDYLKNKLSHIKQRIQEYDKVMNWDVQGYS"}, "B2": {"name": "Occludin (protein, UniProt Q16625 1-522)", "chain": "MSSRPLESPPPYRPDEFKPNHYAPSNDIYGGEMHVRPMLSQPAYSFYPEDEILHFYKWTSPPGVIRILSMLIIVMCIAIFACVASTLAWDRGYGTSLLGGSVGYPYGGSGFGSYGSGYGYGYGYGYGYGGYTDPRAAKGFMLAMAAFCFIAALVIFVTSVIRSEMSRTRRYYLSVIIVSAILGIMVFIATIVYIMGVNPTAQSSGSLYGSQIYALCNQFYTPAATGLYVDQYLYHYCVVDPQEAIAIVLGFMIIVAFALIIFFAVKTRRKMDRYDKSNILWDKEHIYDEQPPNVEEWVKNVSAGTQDVPSPPSDYVERVDSPMAYSSNGKVNDKRFYPESSYKSTPVPEVVQELPLTSPVDDFRQPRYSSGGNFETPSKRAPAKGRAGRSKRTEQDHYETDYTTGGESCDELEEDWIREYPPITSDQQRQLYKRNFDTGLQEYKSLQSELDEINKELSRLDKELDDYREESEEYMAAADEYNRLKQVKGSADYKSKKNHCKQLKSKLSHIKKMVGDYDRQKT"}}, "key": {"[1]": {"target": "T1, Occludin (human (endogenous in HPAFII and AsPc1)) (UniProt Q16625)", "T1 sequence": "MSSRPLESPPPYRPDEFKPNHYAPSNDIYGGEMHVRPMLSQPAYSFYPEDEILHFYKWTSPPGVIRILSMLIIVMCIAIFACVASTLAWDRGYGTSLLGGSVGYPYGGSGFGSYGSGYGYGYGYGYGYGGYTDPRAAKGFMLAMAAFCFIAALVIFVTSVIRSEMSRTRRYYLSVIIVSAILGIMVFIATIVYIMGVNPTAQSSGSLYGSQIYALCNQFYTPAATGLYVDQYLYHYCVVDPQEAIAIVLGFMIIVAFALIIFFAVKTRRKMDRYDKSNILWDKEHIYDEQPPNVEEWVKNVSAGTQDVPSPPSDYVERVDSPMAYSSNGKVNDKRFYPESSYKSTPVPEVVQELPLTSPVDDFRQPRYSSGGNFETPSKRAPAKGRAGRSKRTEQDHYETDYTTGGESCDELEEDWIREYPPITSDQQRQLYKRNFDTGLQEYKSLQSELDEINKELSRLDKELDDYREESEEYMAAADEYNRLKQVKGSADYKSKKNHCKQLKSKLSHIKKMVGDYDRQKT", "experiment": "co-IP; immunoprecipitation of Ocln from nuclear, cytoplasmic and membrane fractions of HPAFII cells, non-treated or treated with 20 uM dobutamine; antibody overnight at 4°C, A/G beads, washes in RIPA buffer; immunoblot"}, "[2]": {"target": "T2, Occludin (human (endogenous in HPAFII and AsPc1)), Q16625", "T2 chain": "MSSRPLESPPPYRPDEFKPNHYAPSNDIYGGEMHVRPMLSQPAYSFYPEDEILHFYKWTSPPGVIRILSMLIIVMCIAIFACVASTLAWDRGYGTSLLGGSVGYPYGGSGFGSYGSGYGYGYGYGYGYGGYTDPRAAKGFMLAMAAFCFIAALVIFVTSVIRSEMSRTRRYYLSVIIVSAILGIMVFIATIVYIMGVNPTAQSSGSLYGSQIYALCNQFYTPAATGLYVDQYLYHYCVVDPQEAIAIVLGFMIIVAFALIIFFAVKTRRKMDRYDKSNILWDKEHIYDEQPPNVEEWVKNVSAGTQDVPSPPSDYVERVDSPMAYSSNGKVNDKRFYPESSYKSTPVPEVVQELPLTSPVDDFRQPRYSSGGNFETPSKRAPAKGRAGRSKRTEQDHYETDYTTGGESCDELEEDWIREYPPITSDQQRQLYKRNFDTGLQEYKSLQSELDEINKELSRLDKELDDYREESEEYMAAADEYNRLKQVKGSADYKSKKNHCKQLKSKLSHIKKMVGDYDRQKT", "experiment": "co-IP; immunoprecipitation of Ocln from nuclear, cytoplasmic and membrane fractions of HPAFII cells, non-treated or treated with 20 uM dobutamine; antibody overnight at 4°C, A/G beads, washes in RIPA buffer; immunoblot", "details": "remark: other sources report otherwise"}, "[3]": {"target": "c-Yes associated protein (human (endogenous in HPAFII and AsPc1)) (UniProt P46937)", "experiment": "co-IP; immunoprecipitation of YAP from HPAFII cells (cellular distributions compared), immunoblot for Ocln; antibody overnight at 4°C, A/G beads, washes in RIPA buffer"}, "[4]": {"target": "c-Yes associated protein (human (endogenous in HPAFII and AsPc1)) (UniProt P46937)", "experiment": "co-IP; immunoprecipitation of YAP from AsPc1 cells (cellular distributions compared), immunoblot for Ocln; antibody overnight at 4°C, A/G beads, washes in RIPA buffer"}}, "note": "These are yes or no findings as the source states them, for the method shown. Binding seen in cells or lysates may run through a third protein. Some binding calls cover weakened binding; strength is not graded here."}
{"molecule": "c-Yes (from UniProt P07947 1-543)", "values": [{"measurement": "binding", "setting": "[1]", "result": "binds"}]}
{"molecule": "B1", "values": [{"measurement": "binding", "setting": "[2]", "result": "binds"}]}
{"molecule": "B2", "values": [{"measurement": "binding", "setting": "[3]", "result": "binds"}, {"measurement": "binding", "setting": "[4]", "result": "binds"}]}
